{"source": "paper PMC9457622", "about": "“Synthesis of Bio-Inspired 1,3-Diarylpropene Derivatives via Heck Cross-Coupling and Cytotoxic Evaluation on Breast Cancer Cells” (Molecules, 2022)", "format_in_all_cases": "cell-based", "key": {"[1]": {"test_system": "MCF-7 human breast cancer cell lines", "test": "MTT proliferation (cytotoxicity) assay on MCF-7 cells", "excerpt": "(§1) MCF-7 and MDA-MB-231 human breast cancer cell lines, as well as MCF-10A human normal breast cell lines, were used in this study. These cells were acquired from the American Type Culture Collection (Manassas, VA, USA). MCF-7 and MDAMB-231 cells were regularly cultured in Dulbecco’s Modified Eagle’s Medium (DMEM; Gibco, Waltham, MA, USA), and supplemented with 10% (v/v) foetal bovine serum (FBS; Gibco, Waltham, MA, USA) and 100 U/mL penicillin-streptomycin (PenStrep; Gibco, Waltham, MA, USA). MCF-10A cells were routinely cultured in DMEM/F12 (Gibco, Waltham, MA, USA) medium supplemented with 5% horse serum (Sigma-Aldrich, Burlington, MA, USA), 10 μg/mL of insulin (Sigma-Aldrich, Burlington, MA, USA), 20 ng/mL of human epidermal growth factor (hEGF; ThermoFisher, Waltham, MA, USA), 0.5 μg/mL of hydrocortisone (Sigma-Aldrich, Burlington, MA, USA) and 1 U/mL PenStrep. All cell lines were maintained in a humidified atmosphere with 5% CO2 at 37 °C.\n(§2) The effects of the N-(2-cinnamylphenyl)amide products (i.e., isolated pure isomers) on MCF-7, MDA-MB-231 and MCF-10A were determined using a 3-(4,5-dimethylthiazol-2-yl)-2,5-diphenyltetrazolium bromide (MTT) proliferation assay. The cell lines were seeded in 96-well plates at a density of 1 × 10^4 cells/well and allowed to grow overnight for cell attachment. […] The optical density (O.D.) of each well was measured using a microplate reader (PowerWave-XS; Bio-Tek Instruments, Winooski, Vermont, USA) at 570 nm. […]\n(§3) The selectivity index (SI) was used to indicate the cytotoxic selectivity of the samples against cancer cells and normal cells. It was calculated from the IC50 of the samples in normal cells versus cancer cells. […] All data were analysed and presented as means standard deviation (±SD). Comparisons between each concentration of 18 samples were evaluated using Student’s t-test, where p < 0.05, p < 0.01 or p < 0.001 were considered as statistically significant relative to the untreated control cells."}, "[2]": {"test_system": "MCF-10A human normal breast cell lines", "test": "MTT proliferation (cytotoxicity) assay on MCF-10A normal cells", "excerpt": "as §1, §2, §3"}, "[3]": {"test_system": "MDA-MB-231 human breast cancer cell lines", "test": "MTT proliferation (cytotoxicity) assay on MDA-MB-231 cells", "conditions": "48 h incubation", "excerpt": "MCF-7 and MDA-MB-231 human breast cancer cell lines, as well as MCF-10A human normal breast cell lines, were used in this study. These cells were acquired from the American Type Culture Collection (Manassas, VA, USA). MCF-7 and MDAMB-231 cells were regularly cultured in Dulbecco’s Modified Eagle’s Medium (DMEM; Gibco, Waltham, MA, USA), and supplemented with 10% (v/v) foetal bovine serum (FBS; Gibco, Waltham, MA, USA) and 100 U/mL penicillin-streptomycin (PenStrep; Gibco, Waltham, MA, USA). […]\nas §2, with “assay.” for “assay. The cell lines were seeded in 96-well plates at a density of 1 × 10^4 cells/well and allowed to grow overnight for cell attachment.”\nas §3"}}, "data": [{"smiles": "CC/C(=C(\\c1ccccc1)c1ccc(OCCN(C)C)cc1)c1ccccc1", "note": "[Tamoxifen, reference compound]", "values": [{"measurement": "IC50", "setting": "[1]; MCF7, 24 h incubation", "result": "16.2 ± 0.37", "unit": "µM"}, {"measurement": "IC50", "setting": "[1]; MCF7, 48 h incubation", "result": "15.4 ± 1.42", "unit": "µM"}, {"measurement": "IC50", "setting": "[1]; MCF7, 72 h incubation", "result": "15.78 ± 0.1", "unit": "µM"}, {"measurement": "IC50", "setting": "[2]; 24 h incubation", "result": "3.24 ± 0.01", "unit": "µM"}, {"measurement": "IC50", "setting": "[2]; 48 h incubation", "result": "3.33 ± 0.02", "unit": "µM"}, {"measurement": "IC50", "setting": "[2]; 72 h incubation", "result": "4.07 ± 0.09", "unit": "µM"}, {"measurement": "IC50", "setting": "[3]", "result": "15.9 ± 0.73", "unit": "µM"}]}]}
